Assay results taken from patent publication US20080176339A1, “NEUTRAL LABELING REACTANTS AND CONJUGATES DERIVED THEREOF” (WALLAC OY, priority 2006, published 2008).

System: antiserum
Assay: Performance of thyroxine tracers in DELFIA based T4-assay compared to AutoDELFIA Neonatal T4 kit
Settings: for Interference with EDTA: EDTA-containing samples; for Analytical sensitivity: optimized standard curve; for Correlation to AutoDelfia Neonatal T4 assay, R: small sample panel, n = 27; for Mean Bias: versus AutoDELFIA Neonatal T4 assay
Method: The assay concentrations of the antiserum were optimized for each tracer individually, and the analytical sensitivities of the optimized standard curves were defined. The correlation between the methods were studied with a small sample panel. The on-board stability was tested up to one week in instrument-like conditions. Sensitivity to the interference of EDTA-containing samples was also studied.

Structure (SMILES) | Interference with EDTA | Analytical sensitivity | Correlation to AutoDelfia Neonatal T4 assay, R | Mean Bias
NC(=O)CN(CCN(CC(=O)O)CC(Cc1ccc(NC(=S)NCCCCCC(=O)NC(Cc2cc(I)c(Oc3cc(I)c(O)c(I)c3)c(I)c2)C(=O)O)cc1)N(CC(N)=O)CC(=O)O)CC(=O)O (centres unmarked) [Compound 13] | No | 0.42 μL/dL | R = 0.87, n = 27 | −0.7%
O=C(O)CN(CCN(CC(=O)O)CC(Cc1ccc(NC(=S)NCCCCCC(=O)NC(Cc2cc(I)c(Oc3cc(I)c(O)c(I)c3)c(I)c2)C(=O)O)cc1)N(CC(=O)O)CC(=O)O)CC(=O)O (centres unmarked) [Compound T4-DTPA] | No | 0.35 μL/dL | R = 0.94, n = 27 | −0.1%
